This is an account of results in patent US12331072 (dated 2025).

Series [1] is described as follows: general procedure: solution-phase peptide synthesis; DMT-MM.
A short description of the next series: peptide synthesis. The following applies: whole synthesis.

Boc-Leu-MeLeu-Thr(OBn)-MeGly-OAllyl returned a step yield in series [1] (coupling step) of 93% yield. For the same substance, the “crude HPLC purity” value in series [1] (coupling step, LC A %) turned out to be 95.36%.
Substance “Boc-MeAla-MePhe-Leu-MeLeu-Thr(OBn)-MeGly-OH” had a step yield in series [1] (late stage modification step) of 86%. Moreover, in series [1] (late stage modification step, LC area %), the “crude HPLC purity” value stood at 92.03%.
With Boc-MeIle-Ala-MePhe-MeVal-Asp(OCTC)-pip, the “crude HPLC purity” value in series [1] (whole synthesis, LC area %) was determined as 96.471%. For the same substance, the crude yield in “peptide synthesis” stood at 69%.
